Assay [1] addresses T1, ASPP2-REVD mutant (R921E and V922D) (human) (UniProt Q13625).
T1 sequence: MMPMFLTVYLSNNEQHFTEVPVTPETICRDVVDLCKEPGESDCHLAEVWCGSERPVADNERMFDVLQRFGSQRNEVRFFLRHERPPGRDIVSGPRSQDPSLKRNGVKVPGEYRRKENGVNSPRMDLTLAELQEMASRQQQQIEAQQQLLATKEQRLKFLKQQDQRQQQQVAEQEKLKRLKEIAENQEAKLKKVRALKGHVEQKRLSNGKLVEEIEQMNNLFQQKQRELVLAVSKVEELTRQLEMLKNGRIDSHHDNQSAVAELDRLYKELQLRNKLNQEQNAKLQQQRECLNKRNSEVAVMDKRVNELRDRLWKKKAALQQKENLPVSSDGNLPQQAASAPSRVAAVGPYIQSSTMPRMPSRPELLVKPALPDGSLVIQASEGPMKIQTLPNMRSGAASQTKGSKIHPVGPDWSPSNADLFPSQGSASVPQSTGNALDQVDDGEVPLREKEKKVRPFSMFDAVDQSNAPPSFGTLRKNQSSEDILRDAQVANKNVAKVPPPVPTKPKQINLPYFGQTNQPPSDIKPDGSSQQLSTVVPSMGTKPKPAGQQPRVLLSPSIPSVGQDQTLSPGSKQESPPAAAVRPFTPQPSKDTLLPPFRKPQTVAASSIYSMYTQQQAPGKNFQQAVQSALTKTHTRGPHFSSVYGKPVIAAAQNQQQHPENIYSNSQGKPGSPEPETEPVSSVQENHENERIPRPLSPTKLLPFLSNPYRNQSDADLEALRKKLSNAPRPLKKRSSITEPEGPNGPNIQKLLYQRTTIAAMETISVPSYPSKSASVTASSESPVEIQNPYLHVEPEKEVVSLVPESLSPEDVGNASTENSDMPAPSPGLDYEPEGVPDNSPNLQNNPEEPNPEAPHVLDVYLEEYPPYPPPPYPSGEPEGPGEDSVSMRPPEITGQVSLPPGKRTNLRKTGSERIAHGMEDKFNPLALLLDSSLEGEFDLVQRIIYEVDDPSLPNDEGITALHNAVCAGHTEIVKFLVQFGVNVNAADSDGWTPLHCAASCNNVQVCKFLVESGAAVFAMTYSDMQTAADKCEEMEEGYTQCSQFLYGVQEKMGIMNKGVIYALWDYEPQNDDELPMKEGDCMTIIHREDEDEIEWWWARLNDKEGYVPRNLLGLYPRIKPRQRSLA
The assay can be described thus: co-IP.

Assay [2] addresses T2, V5-human ASPP2 full-length (human) (UniProt Q13625).
T2 sequence: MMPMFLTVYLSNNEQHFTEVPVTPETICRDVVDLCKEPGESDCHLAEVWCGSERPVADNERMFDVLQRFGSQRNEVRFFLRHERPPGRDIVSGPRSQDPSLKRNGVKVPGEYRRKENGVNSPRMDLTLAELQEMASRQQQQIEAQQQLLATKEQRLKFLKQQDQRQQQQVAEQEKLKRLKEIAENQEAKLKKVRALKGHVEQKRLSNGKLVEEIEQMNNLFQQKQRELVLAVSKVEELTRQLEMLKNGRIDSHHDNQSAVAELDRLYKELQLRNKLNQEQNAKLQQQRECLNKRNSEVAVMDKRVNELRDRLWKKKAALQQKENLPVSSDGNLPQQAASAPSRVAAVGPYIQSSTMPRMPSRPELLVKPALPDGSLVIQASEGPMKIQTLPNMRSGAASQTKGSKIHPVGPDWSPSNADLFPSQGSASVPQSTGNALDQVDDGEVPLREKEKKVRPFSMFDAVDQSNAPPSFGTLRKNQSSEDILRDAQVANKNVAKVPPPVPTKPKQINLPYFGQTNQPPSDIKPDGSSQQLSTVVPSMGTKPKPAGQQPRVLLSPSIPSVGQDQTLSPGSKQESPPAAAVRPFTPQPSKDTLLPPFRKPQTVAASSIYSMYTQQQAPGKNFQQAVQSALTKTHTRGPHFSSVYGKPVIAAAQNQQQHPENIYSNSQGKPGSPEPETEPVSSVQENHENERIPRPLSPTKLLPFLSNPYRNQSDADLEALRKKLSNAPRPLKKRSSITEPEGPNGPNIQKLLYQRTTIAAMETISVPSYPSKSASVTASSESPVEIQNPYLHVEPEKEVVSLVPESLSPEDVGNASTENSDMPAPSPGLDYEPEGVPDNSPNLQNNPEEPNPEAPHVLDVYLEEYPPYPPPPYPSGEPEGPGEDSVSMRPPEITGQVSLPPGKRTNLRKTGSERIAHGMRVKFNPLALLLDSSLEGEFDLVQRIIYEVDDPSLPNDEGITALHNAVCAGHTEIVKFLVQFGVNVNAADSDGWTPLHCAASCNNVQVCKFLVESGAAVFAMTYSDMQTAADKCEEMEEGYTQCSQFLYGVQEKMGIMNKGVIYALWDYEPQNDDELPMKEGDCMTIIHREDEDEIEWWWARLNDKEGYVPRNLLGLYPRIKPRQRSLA
Put plainly: co-IP.

The values that follow come from paper doi:10.1101/2020.05.04.075952.

Results are given in words; binding and its absence hold for the method and conditions named. Binding seen in cells or lysates may run through a third protein. Some results given as binding are weak or reduced against the parent protein; the word gives no strength. Tags and fused reporters may be left off the sequences shown.

B1: HA-LATS2 (enzyme, UniProt Q7TSJ6 1-1042)
chain: MRPKTFPATTYSGNSRQRLQEIREGLKQPSKASTQGLLVGPNSDTSLDAKVLGSKDASRQQQMRATPKFGPYQKALREIRYSLLPFANESGTSAAAEVNRQMLQELVNAGCDQEMAGRALKQTGSRSIEAALEYISKMGYLDPRNEQIVRVIKQTSPGKGLAPTPVTRRPSFEGTGEALPSYHQLGGANYEGPAALEEMPRQYLDFLFPGAGAGTHGAQAHQHPPKGYSTAVEPSAHFPGTHYGRGHLLSEQPGYGVQRSSSFQNKTPPDAYSSMAKAQGGPPASLTFPAHAGLYTASHHKPAATPPGAHPLHVLGTRGPTFTGESSAQAVLAPSRNSLNADLYELGSTVPWSAAPLARRDSLQKQGLEASRPHVAFRAGPSRTNSFNNPQPEPSLPAPNTVTAVTAAHILHPVKSVRVLRPEPQTAVGPSHPAWVAAPTAPATESLETKEGSAGPHPLDVDYGGSERRCPPPPYPKHLLLPSKSEQYSVDLDSLCTSVQQSLRGGTEQDRSDKSHKGAKGDKAGRDKKQIQTSPVPVRKNSRDEEKRESRIKSYSPYAFKFFMEQHVENVIKTYQQKVSRRLQLEQEMAKAGLCEAEQEQMRKILYQKESNYNRLKRAKMDKSMFVKIKTLGIGAFGEVCLACKLDTHALYAMKTLRKKDVLNRNQVAHVKAERDILAEADNEWVVKLYYSFQDKDSLYFVMDYIPGGDMMSLLIRMEVFPEHLARFYIAELTLAIESVHKMGFIHRDIKPDNILIDLDGHIKLTDFGLCTGFRWTHNSKYYQKGNHMRQDSMEPGDLWDDVSNCRCGDRLKTLEQRAQKQHQRCLAHSLVGTPNYIAPEVLLRKGYTQLCDWWSVGVILFEMLVGQPPFLAPTPTETQLKVINWESTLHIPTQVRLSAEARDLITKLCCAADCRLGRDGADDLKAHPFFNTIDFSRDIRKQPAPYVPTISHPMDTSNFDPVDEESPWHEASGESAKAWDTLASPSSKHPEHAFYEFTFRRFFDDNGYPFRCPKPSEPAESADPGDADLEGAAEGCQPVYV
Regarding B1, the binding entry in assay [1] and in assay [2] was “binds” in each case.
